Data as given in PubChem BioAssay AID504808 (Drosophila RNAi Screening Center, 2011)
In all, the deposit lists about 21,000 reagents; below is an unselected part of those that have a named target and a result. Of all reagents, 18 (0.084%) are marked active. 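Raw counts without plate normalisation, one of two replicates; the ratio scores behind the calls were not deposited.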 A plus sign joins genes that one reagent is predicted to hit. Not given: the amount of reagent, the time to read-out.

Screen: 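Chromatin factors that keep E2F targets switched off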 (primary screen)
Cell system: Drosophila S2 cells
Reagent: long dsRNA against Drosophila genes
Read-out: 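Dual luciferase plate measurements; E2F-specific signal taken as firefly over Renilla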
Scale: E2F firefly: higher = more E2F reporter activity; Renilla normaliser: higher = more normaliser reporter signal
Hit rule: 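a knock-down counted as active when the firefly/Renilla E2F signal rose above 50%, a threshold chosen arbitrarily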

The opening 9 entries, to show the layout:
gene,amplicon,"E2F firefly, rep 1","Renilla normaliser, rep 1",activity call
Skadu,DRSC01490,1.30e5,6125,inactive
CG42570,DRSC09391,1.36e5,4114,inactive
CG17575,DRSC06682,1.01e5,4899,inactive
IP3K1,DRSC02734,89867,3717,inactive
dpr10,DRSC09015,1.35e5,4844,inactive
dpr10,DRSC09018,1.40e5,5082,inactive
dpr10,DRSC10159,89763,5158,inactive
dpr10,DRSC10160,79753,3666,inactive
Cyp313a1,DRSC16624,1.19e5,6328,inactive

Results, repeating the preview:
gene,amplicon,"E2F firefly, rep 1","Renilla normaliser, rep 1",activity call
Skadu,DRSC01490,1.30e5,6125,inactive
CG42570,DRSC09391,1.36e5,4114,inactive
CG17575,DRSC06682,1.01e5,4899,inactive
IP3K1,DRSC02734,89867,3717,inactive
dpr10,DRSC09015,1.35e5,4844,inactive
dpr10,DRSC09018,1.40e5,5082,inactive
dpr10,DRSC10159,89763,5158,inactive
dpr10,DRSC10160,79753,3666,inactive
Cyp313a1,DRSC16624,1.19e5,6328,inactive
CG34232,DRSC05332,1.26e5,5213,inactive
CG6204,DRSC15991,77870,3425,inactive
Ykt6,DRSC17970,7080,796,inactive
Cyp4ad1,DRSC07369,2750,252,inactive
CG34109,DRSC02169,1.53e5,5743,inactive
CG34109,DRSC02224,1.59e5,4691,inactive
CG34109,DRSC02225,1.61e5,4785,inactive
CG11373,DRSC12170,1.41e5,7653,inactive
Arp53D,DRSC05923,1.48e5,4743,inactive
lace,DRSC03564,81898,3759,inactive
CG16717,DRSC10221,1.18e5,7000,inactive
RASSF8,DRSC15707,1861,1120,inactive
ric8b + ric8a,DRSC18104,1.18e5,5710,inactive
Scamp,DRSC20286,1.73e5,17960,inactive
CG13970,DRSC02311,99762,4447,inactive
CG17839,DRSC10290,1.65e5,7565,inactive
CG17839,DRSC10291,1.92e5,9446,inactive
CG14883,DRSC15007,1.02e5,4807,inactive
Klf15,DRSC17742,73934,4886,inactive
CG43736 + CG33692 (retired record),DRSC18370,70850,4949,inactive
CG43736 + CG33692 (retired record),DRSC18371,1.02e5,5443,inactive
CG1371,DRSC06409,2796,192,inactive
Iyd,DRSC10614,99933,5352,inactive
Iyd,DRSC10615,1.03e5,6650,inactive
fig,DRSC16270,1.26e5,6241,inactive
Zdhhc8,DRSC18044,1.22e5,5326,inactive
Zdhhc8,DRSC18122,1.20e5,6040,inactive
CG10958,DRSC17768,8161,640,inactive
CNT2,DRSC07073,3508,55,inactive
CG7903,DRSC16338,1.17e5,6420,inactive
S-Lap5,DRSC06732,97798,4322,inactive
CG17726,DRSC15255,54259,3517,inactive
CG3301,DRSC15471,78599,3529,inactive
Obp69a,DRSC11247,1.12e5,5446,inactive
CG12934,DRSC06247,1.38e5,4402,inactive
CG10184,DRSC14204,80771,3885,inactive
CG14006,DRSC02338,1.48e5,5303,inactive
CG10866,DRSC08171,1.02e5,4191,inactive
Shawl,DRSC02209,1.42e5,5061,inactive
Shawl,DRSC02748,1.47e5,5801,inactive
dimm,DRSC03100,1.06e5,4641,inactive
Traf-like,DRSC19894,6978,728,inactive
obst-I,DRSC08339,77945,3775,inactive
CG8924,DRSC20122,6878,664,inactive
CG5250,DRSC15752,1.58e5,8288,inactive
CG14329,DRSC14808,96494,5162,inactive
Vps29,DRSC00666,78655,3404,inactive
koi,DRSC04980,1.53e5,5049,inactive
CG10000,DRSC14170,1.23e5,6946,inactive
NimC2,DRSC01881,1.04e5,4277,inactive
Alp1,DRSC11781,71753,2845,inactive
CG31975 + ovm,DRSC00323,1.34e5,4784,inactive
CG17744,DRSC10286,88093,3582,inactive
Neos,DRSC11235,90831,3656,inactive
Tmep,DRSC08215,67674,3749,inactive
CG13871,DRSC06430,1.39e5,4469,inactive
kis,DRSC00521,1.63e5,5484,inactive
kis,DRSC00625,1.50e5,4847,inactive
kis,DRSC00823,86006,3610,inactive
CG18675,DRSC08536,91993,3659,inactive
MED4,DRSC11014,50530,3139,inactive
CG10063,DRSC09688,87577,3451,inactive
CG32104,DRSC10127,1.10e5,5501,inactive
CG32104,DRSC10128,1.13e5,5376,inactive
CG13309,DRSC09980,97564,4592,inactive
CG5880,DRSC15906,1596,1140,inactive
HnRNP-K,DRSC07585,75187,3197,inactive
CG15269,DRSC01942,89192,4006,inactive
CG17824 (retired record),DRSC10288,1.44e5,7339,inactive
CG43672,DRSC19452,1.58e5,6087,inactive
CG43672,DRSC20108,1.54e5,6317,inactive
Rpt1,DRSC07542,2218,225,inactive
CG13097,DRSC02199,81076,3169,inactive
CG10887,DRSC14277,1.22e5,6756,inactive
Past1,DRSC16784,1.47e5,6256,inactive
